Some of these results come from one statement about several compounds together. For at least one compound, name, drawing or mass did not settle the structure.
Key:
[1] = Hydrolysis (aquation) kinetics followed by 1H NMR; assay type: physicochemical; conditions: 288 K
Method: Hydrolysis. […] The rate of hydrolysis was determined by fitting plots of concentrations (determined by ^1H NMR peak integrals) versus time to a pseudo first-order equation using ORIGIN version 5.0 (Microcal Software Ltd.).

9-ethyl guanine (9EtG) = test: Reaction with nucleobase model 9-ethyl guanine, 1H NMR; assay type: binding; conditions: guanine specific
Method: Since DNA is believed to be the main target for metal anticancer drugs, nucleobase binding reactions of compounds 3-6, with nucleobase models, 9-ethyl guanine (9EtG) and 9-ethyl adenine (9EtA), were investigated.
Solutions of 3-6 (1 mM) (present as an equilibrium between 3-6 and their respective aqua adducts as the major species) with 1 mol equivalent of 9EtG (Table 14) or 9EtA (Table 15) in D2O were prepared and ^1H NMR spectra were taken at different time intervals.
Interactions with Nucleobases. The reaction of compounds 8-12 with nucleobases typically involved addition of a solution containing 1 mol equiv of nucleobase in D2O, to an equilibrium solution of compounds 8-12 in D2O (>90% aqua). The pH* value of the sample was adjusted if necessary so as to remain close to 7.4 (physiological). ^1H NMR spectra of these solutions were recorded at 298 K after various time intervals.

Compound | Time within which the compound hydrolyses [1] | Time to reach equilibrium of nucleobase adduct formation (9-ethyl guanine (9EtG))
Cc1ccc(C(C)C)cc1.O=C1c2cccc[n+]2[Os-]([Cl])[N]1c1ccccc1[N+](=O)[O-] [Compound 11] | ≤ 10 min | ≤ 10 min
[(η^6-p-cym)Os(N-2,4-difluoride-Ph-picolinamide)Cl]PF6 [Compound 8] | ≤ 10 min | ≤ 10 min

Reference: patent US20100291236A1, “OSMIUM COMPOUNDS” (THE UNIVERSITY OF WARWICK, priority 2006, published 2010)
